Data on 58 compounds can be found in PubChem BioAssay AID2685 (National Center for Advancing Translational Sciences (NCATS), 2010).

As a reminder, the AC50 is the concentration giving half of the maximal activity seen. High values mean activity only at high concentration, low ones activity at low concentration.

This test is described as follows: qHTS Assay for Lipid Storage Modulators in Drosophila S3 Cells.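 As to cell number change: cells counted by Cell Tracker Red CMTPX staining in the red channel.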 Particulars: BODIPY lipid droplet fluorescence, 18-24 h; for cell number change: measured here: cell count max response, cells fed with added oleic acid. In outline:
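Laser-scanning cytometry quantifies lipid droplet accumulation (500–530 nm total intensity; droplet/cell object ratio) in oleic acid-fed (400 uM added) Drosophila S3 cells treated with a concentration series. 20 uM Triacsin C defined 100% inhibition.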

[1] abbreviates: measured here: lipid fluorescence (Fed channel) AC50, cells fed with added oleic acid.
Setting [2] is: measured here: cell number channel AC50, cells fed with added oleic acid.

Some of the results follow. These are further read-outs of the screen, such as a control signal, another cell line or another target. No call is given for them. Compounds called inactive in the main read-out are mostly missing here. Words in brackets tell the shape of the fitted curve; partial curves, single points and poor fits give uncertain potencies.

`Cc1ccc(S(=O)(=O)N2CCC(C(N)=O)CC2)cc1[N+](=O)[O-]`: the cell number change is 8.55%. For the same compound, the AC50 under setting [1] is 6.51 µM [rising, single point]. In the case of `NC(=O)CC(NC(=O)Cc1ccc(Br)cc1)c1ccc(NC2CCN(Cc3ccccc3)CC2)c([N+](=O)[O-])c1` (configuration not stated), the cell number change is -10.8%. Besides, the AC50 under setting [1] is 3.26 µM [falling, single point].

Consider `CC(C)CN(C(=O)C1=NN(c2ccccc2)C(=O)CC1)c1c(N)n(Cc2ccccc2)c(=O)[nH]c1=O`, for which the cell number change was -20.4%. For `CC(C)Cn1c(N)c(C(=O)COC(=O)c2ccccc2F)c(=O)n(C)c1=O`, the cell number change was 12.1%.

For `Cc1cc(NC(=O)CN2C(=O)NC(CCc3ccccc3)C2=O)no1` (configuration not stated), the cell number change was 34.4%. Moreover, under setting [2], the concentration at half-maximal activity (AC50) was 25.9 µM [rising, single point]. Under setting [1], the half-maximal activity concentration (AC50) is 3.66 µM [falling, single point]. With `COCCNC(=O)C(=O)N/N=C/c1cccs1`, the cell number change was 30.9%. In addition, the AC50 under setting [2] was 0.116 µM [rising, full curve, poor fit]. The half-maximal activity concentration (AC50) under setting [1] is 0.0164 µM [rising, full curve]. As to `O=C(Nc1cc(S(=O)(=O)N2CCOCC2)ccc1N1CCCCC1)c1ccccc1`, the cell number change was -0.194%. In addition, the AC50 under setting [2] was 2.06 µM [rising, partial curve, poor fit]. For the same compound, the AC50 under setting [1] was 0.82 µM [rising, full curve, poor fit]. Consider `CCOc1ccc(NC(=O)N2CCC(NC(=O)C(Cc3cccc(F)c3)NC(C)=O)CC2)cc1` (configuration not stated), for which the cell number change is -2.1%. Consider `COCCNC(=O)CSc1cc(-c2ccccc2)c2ccc(OC)cc2n1`, for which the cell number change was 14.2%. Besides, the AC50 under setting [2] is 6.51 µM [rising, single point]. For the same compound, the AC50 under setting [1] is 0.58 µM [falling, single point]. `Cc1nc2ccc(C(=O)N/N=C/c3ccc(O)cc3)cc2[nH]1`: the cell number change amounted to 4.76%. The AC50 under setting [1] is 5.8 µM [rising, single point]. With `Cc1cc(Cl)ccc1OCC(=O)OCC(=O)Nc1cccnc1Cl`, the cell number change stood at 7.03%. The AC50 under setting [1] was 6.51 µM [rising, single point]. Take `Cc1oc2cc(O)cc(O)c2c(=O)c1-c1ccc2c(c1)OCCCO2`: the cell number change was -38.5%. Under setting [2], the half-maximal activity concentration (AC50) is 29.1 µM [falling, single point]. The AC50 under setting [1] is 29.1 µM [falling, single point]. Consider `O=C(COC(=O)C1CC1)Nc1ccc(Oc2ccccc2)cc1`, for which the cell number change turned out to be 11.3%. Under setting [1], the AC50 is 14.6 µM [falling, partial curve].

For the compound `Fc1ccccc1/C=N/n1c(C2CCCCC2)n[nH]c1=S`, the cell number change is -18.4%. `C#CCOc1ccc(Br)cc1/C=N/O`: the AC50 under setting [1] was 0.259 µM [rising, partial curve, poor fit]. As for `CCCCN(c1ccccc1)S(=O)(=O)c1ccc2c(c1)CCN2C(=O)CCC(=O)O`, the AC50 under setting [1] is 5.17 µM [falling, partial curve].

Turning to `COc1ccc(NS(=O)(=O)c2ccc(-n3nnc4ccccc43)c([N+](=O)[O-])c2)cc1`, the cell number change is -19.4%. In addition, the half-maximal activity concentration (AC50) under setting [2] is 0.00517 µM [falling, full curve, poor fit]. Moreover, the AC50 under setting [1] was 0.116 µM [falling, full curve]. On to `COc1ccc(S(=O)(=O)Nc2ccc(S(=O)(=O)N3CCOCC3)cc2)cc1`, for which the cell number change is -4.78%. In addition, the AC50 under setting [1] is 0.206 µM [rising, full curve]. `COc1ccc(CN2CCN(C(=O)c3cccc4ccccc34)CC2)c(OC)c1OC`: the cell number change was 3.56%. In the case of `Cc1ccc(C(CNC(=O)C(=O)Nc2ccc3c(c2)OCCO3)N2CCN(C)CC2)cc1` (configuration not stated), the cell number change was -10.9%. Under setting [2], the AC50 is 0.116 µM [falling, full curve, poor fit]. Besides, the AC50 under setting [1] is 0.731 µM [falling, full curve, poor fit]. Regarding `CCN(CC(=O)NC(c1ccccc1)c1ccccc1)Cc1nc2ccccc2c(=O)[nH]1`, the AC50 under setting [2] is 0.82 µM [rising, partial curve, poor fit]. `C=C(C)CSc1cc(C)c(C#N)c2nc3ccccc3n12`: the cell number change is -7.72%. Also, the AC50 under setting [1] is 0.00651 µM [rising, full curve, poor fit]. With `Cn1c(=O)c(C(=O)NNC(=O)c2ccc(Br)cc2)c(O)c2ccccc21`, under setting [1], the AC50 was 6.51 µM [falling, single point]. On to `CCC1CSC(=Nc2ccc(C)cc2)N1C(=O)CN1C(=O)NC2(CCCC2)C1=O` (configuration not stated), for which the cell number change is -16.3%. For the compound `Cc1cccc(NCCNc2cccc(C)c2)c1`, the cell number change is -45.5%. Further, the AC50 under setting [2] was 29.1 µM [falling, single point]. Moreover, the AC50 under setting [1] was 29.1 µM [falling, single point]. Consider `O=C(O)C1CC=CCC1C(=O)Nc1cccc(Cl)c1` (configuration not stated), for which the cell number change is 15.9%. The AC50 under setting [1] was 9.2 µM [rising, partial curve]. Take `COc1ccc(-n2nc(C(=O)NCC(=O)N3CCCCCC3)c3ccccc3c2=O)c(OC)c1`: the cell number change amounted to 29.1%. Also, the AC50 under setting [1] was 6.51 µM [falling, single point].

`COCc1cc(C)nc(N2CCc3ccccc32)c1C#N`: the cell number change was 94.2%. In addition, under setting [2], the half-maximal activity concentration (AC50) is 23.1 µM [rising, single point]. In addition, the AC50 under setting [1] is 1.3 µM [rising, full curve, poor fit]. Consider `CCCCNC(=O)Cn1c(=O)c2c(ncn2CCC(C)C)n(Cc2ccccc2)c1=O`, for which the cell number change turned out to be 24.3%. Consider `COc1ccc(-n2ncc3c(N4CCN(c5cccc(C)c5C)CC4)ncnc32)cc1`, for which the cell number change was -5.09%. The AC50 under setting [1] is 29.1 µM [rising, single point]. Regarding `COc1ccc(C(=O)Oc2ccc(N(C)S(=O)(=O)c3ccccc3)cc2)cc1[N+](=O)[O-]`, the cell number change is -6.05%. Moreover, the AC50 under setting [1] is 0.259 µM [falling, full curve, poor fit]. Turning to `CN(c1ccccc1)S(=O)(=O)c1ccc(Cl)c(C(=O)Nc2nc3ccccc3[nH]2)c1`, the cell number change was -17.6%. Besides, the half-maximal activity concentration (AC50) under setting [1] is 2.06 µM [rising, partial curve]. As to `Cc1ccc(C)c(CNS(=O)(=O)c2c(C)[nH]c(C)c2C(=O)N2CCCCC2)c1`, the cell number change turned out to be 2.75%. For the same compound, the AC50 under setting [1] was 0.58 µM [falling, single point]. For the compound `COc1ccc(CNC(=O)COc2ccc(S(=O)(=O)N3CCCCC3)cc2Cl)cc1`, the cell number change was -13.9%.

Turning to `CCn1c(=N)n(CCO)c2ccccc21`, the cell number change was found to be 16.9%. For the same compound, the AC50 under setting [2] is 0.731 µM [falling, full curve, poor fit]. The AC50 under setting [1] was 0.184 µM [falling, full curve, poor fit]. As for `NC(=O)CC(O)c1cccc(Cl)c1` (configuration not stated), the cell number change is 2.88%. As for `COc1ccc(-c2noc(C3CCCN(C(=O)c4cccs4)C3)n2)cc1` (configuration not stated), the cell number change was -12.9%. The AC50 under setting [1] was 6.51 µM [rising, single point].

Regarding `Cc1cc(Oc2cnn(C(C)(C)C)c(=O)c2Cl)cc(C(C)C)c1`, the cell number change was -64.4%. Also, under setting [2], the AC50 is 18.4 µM [falling, single point]. For `CCOC(=O)c1sc(N=NC2=C(O)CCCC2=O)c(C(=O)OCC)c1C`, the cell number change is -1.21%. Under setting [1], the AC50 is 0.0058 µM [rising, full curve, poor fit]. `Cc1ccc(SCC(=O)OCC(=O)N(C)C2CCS(=O)(=O)C2)cc1C` (configuration not stated): the cell number change is -0.672%. The AC50 under setting [1] is 3.26 µM [falling, full curve]. As for `O=C(Nc1nc2ccccc2s1)C1CCCO1` (configuration not stated), the cell number change is -6.88%. For the same compound, the AC50 under setting [1] was 29.1 µM [falling, single point].

As to `CC12CCC(C(=O)NCc3ccc(F)cc3)(OC1=O)C2(C)C` (configuration not stated), the cell number change was -24.1%. With `COC(=O)c1[nH]c2ccc(Cl)cc2c1NC(=O)CCN1CCN(C2CCCCC2)CC1`, under setting [2], the AC50 was 6.51 µM [falling, single point].

As for `COc1cc(/C=N/NC(=O)c2ccccn2)ccc1OC(=O)c1ccccc1Br`, the cell number change is -38.6%. The AC50 under setting [2] was 29.1 µM [falling, single point].

With `COc1ccc(C(=O)N/C(=C\c2cccc3ccccc23)C(=O)N2CCN(C)CC2)cc1`, the cell number change is -4.26%. For the same compound, the AC50 under setting [1] was 0.651 µM [rising, single point]. Consider `CCOC(=O)N/N=C/c1ccc(N2CCOCC2)s1`, for which the cell number change was 5.91%. In addition, the AC50 under setting [1] was 0.103 µM [rising, single point]. For `CCN1CCN(C(=O)c2ccccc2N(Cc2ccccc2)S(C)(=O)=O)CC1`, the cell number change was -31.4%. Besides, the AC50 under setting [2] is 29.1 µM [falling, single point]. The AC50 under setting [1] was 0.0058 µM [falling, full curve, poor fit]. Consider `CCOc1ccc(N(CC(=O)Nc2cccc(N(C)S(C)(=O)=O)c2)S(=O)(=O)c2ccccc2)cc1`, for which the cell number change is -0.582%. For the same compound, the half-maximal activity concentration (AC50) under setting [2] was 1.84 µM [rising, partial curve, poor fit]. Under setting [1], the AC50 is 1.46 µM [rising, partial curve, poor fit]. As to `O=C(NCCCNCc1ccccc1)c1ccncc1`, the cell number change was determined as 7.74%. With `CC1CCCC(NC(=O)NC(=O)COC(=O)c2ccc(O)cc2O)C1C` (configuration not stated), the cell number change was -62.9%. In addition, the AC50 under setting [2] is 25.9 µM [falling, partial curve]. The AC50 under setting [1] was 0.164 µM [rising, full curve, poor fit].

Regarding `CN(C(=O)c1ccc(NC(=O)Cc2ccc(NC(=O)C3CCN(C(=O)CCc4ccccc4)CC3)cc2)cc1)C1CC1`, the cell number change is -37.6%. The AC50 under setting [2] is 1.84 µM [falling, partial curve]. In addition, under setting [1], the AC50 was 1.84 µM [falling, partial curve, poor fit].

Turning to `COC(=O)[C@H](CCSC)NC(=O)Nc1cccc(C)c1C`, the cell number change was -9.36%. The AC50 under setting [2] is 2.31 µM [falling, partial curve, poor fit]. Turning to `Cc1cc(=O)oc2cc(OCc3ccc(C(=O)OCC(=O)Nc4ccccc4OC(F)F)cc3)ccc12`, the cell number change was 9.04%. Also, under setting [1], the AC50 is 1.3 µM [falling, single point].

For `C=CCn1c(C)cc(C(=O)CSc2nnc(C3CC3)n2C2CC2)c1C`, the cell number change is -12.6%. For the same compound, the AC50 under setting [1] was 0.0517 µM [falling, full curve, poor fit]. As for `C=CCSc1nc2sc3c(c2c(=O)n1-c1ccc(C)cc1)CCN(C)C3`, the AC50 runs as follows: under setting [2], 0.651 µM [rising, single point]; under setting [1], 0.517 µM [rising, partial curve, poor fit]. Regarding `CC(C)Oc1cccc(C(=O)Nc2ccc(N3CCN(C)CC3)cc2)c1`, the cell number change stood at 7.62%. Besides, the AC50 under setting [1] is 4.11 µM [rising, single point]. For `COCCN(CC(=O)NCC1CCCO1)C(=O)CCC(=O)Nc1ccccn1` (configuration not stated), the cell number change was 5.35%. With `O=C(O)c1ccc(/C=N/NC(=O)c2cc(-c3cccs3)nc3ccccc23)cc1`, the cell number change is -18%.
